SMILES strings stand for the structures.

The data set concerns TGEV. Briefly: Quantitation of TGEV-induced cell death in ST cells by real-time automated microscopy (Cytotox). It counts as cell-based, transmissible gastroenteritis virus (TGEV). The note with it: dose-response fit of TGEV-induced cell death.

`CC(C)C[C@H]1C[C@@H]([Si](c2ccccc2)(c2ccccc2)c2ccccc2)[C@H](CCCCl)O1` [SPL-6] returned a Hill slope n of 2.13.

Turning to `C[C@@H]1O[C@@H](Cc2ccccc2)CC1[Si](c1ccccc1)(c1ccccc1)c1ccccc1` (stereo partly drawn) [SPL-0], the Hill slope n was 2.87.

As for `C[C@H]1OC[C@@H](c2ccccc2)[C@H]1[Si](c1ccccc1)(c1ccccc1)c1ccccc1` [SPL-4], the Hill slope n is reported as 2.52.

For the origin of these results see patent publication EP4166560A1, “TRI-SUBSTITUTED TETRAHYDROFURANS AND USE THEREOF” (Consejo Superior de Investigaciones Cientificas, priority 2021, dated 2023).
